At least one peptide structure holds a part that was inferred or is arguable (an end, a ring closure or a residue). Where no end group is shown, it is not given here.
Tested on: NOD mice
Assay: NOD mouse model of type I diabetes mellitus
Assay type: in vivo
Method: There are different colonies of NOD mice and there can be some variability between the colonies. The colony used develops the disease between 15-20 weeks of age and there is a 70-80% incidence of diabetes mellitus. The mice treated were divided into two groups of 10 animals; the first group being treated with P-16 peptide and the other group comprising of the control group, which was treated with saline. Once the NOD mice were 5 weeks old, the P-16 peptide was injected three times a week interperitoneally at a dose of 5 mg/kg for 23 weeks. The untreated mice and five mice from the treated group were sacrificed at 28 weeks of age. The remaining five mice from the treated group were taken off the peptide treatment at 28 weeks of age and were assessed for the disease after 16 weeks.
There are different colonies of NOD mice and there can be some variability between the colonies. The colony used develops the disease between 15-20 weeks of age and there is a 70-80% incidence of diabetes mellitus. The mice treated were divided into three groups of 10 animals; the first two groups being treated with S-3 and S-7 peptides, and the third group comprising of the control group, which was treated with saline. Once the NOD mice were 5 weeks old, the S-3 and S-7 peptides were injected three times a week intraperitoneally at a dose of 0.1 mg/kg for 23 weeks.

## CSTMMSRSHKTRSHHV [P-peptide, CSTMMSRSHKTRSHHV]
5 mg/kg i.p. three times a week for 23 weeks
  incidence of abnormal urine glucose level: 0%
5 mg/kg i.p. three times a week for 23 weeks from 5 weeks of age
  incidence of diabetes measured by blood glucose level: 20%
